Measurements reported in PubChem BioAssay AID504808 (Drosophila RNAi Screening Center, 2011)
In all, the deposit lists about 21,000 reagents; below is an unselected part of those that have a named target and a result. In the full data, 18 (0.084%) were called active. 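Raw counts without plate normalisation, one of two replicates; the ratio scores behind the calls were not deposited.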 Entries without a mark were called inactive. Names joined by + are all predicted targets of the reagent. Reagent sequences are not shown. Not stated in the record: the amount of reagent, the time to read-out.

- Purpose: 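Genes whose loss lifts activity of an E2F-responsive reporter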 (primary screen)
- Cells: Drosophila S2 cells
- Reagents: long dsRNA against Drosophila genes
- Measurement: 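Dual luciferase plate measurements; E2F-specific signal taken as firefly over Renilla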
- Reading the numbers: E2F firefly: higher = more E2F reporter activity; Renilla normaliser: higher = more normaliser reporter signal
- Hit rule: 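Called active if the normalised E2F reporter went up by over 50%; the cutoff is arbitrary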

{"Target gene": "PGRP-SB1", "DRSC id": "DRSC11090", "E2F firefly, rep 1": 1.48e5, "Renilla normaliser, rep 1": 7825}
{"Target gene": "BEAF-32", "DRSC id": "DRSC05927", "E2F firefly, rep 1": 2616, "Renilla normaliser, rep 1": 166}
{"Target gene": "gbb", "DRSC id": "DRSC04687", "E2F firefly, rep 1": 1.03e5, "Renilla normaliser, rep 1": 3936}
{"Target gene": "128up", "DRSC id": "DRSC05027", "E2F firefly, rep 1": 3069, "Renilla normaliser, rep 1": 192}
{"Target gene": "CG13157", "DRSC id": "DRSC06282", "E2F firefly, rep 1": 1.05e5, "Renilla normaliser, rep 1": 4900}
{"Target gene": "Dhc62B", "DRSC id": "DRSC08655", "E2F firefly, rep 1": 93934, "Renilla normaliser, rep 1": 4030}
{"Target gene": "Ilp6", "DRSC id": "DRSC17906", "E2F firefly, rep 1": 1.14e5, "Renilla normaliser, rep 1": 5456}
{"Target gene": "CG7329", "DRSC id": "DRSC03046", "E2F firefly, rep 1": 1.46e5, "Renilla normaliser, rep 1": 4092}
{"Target gene": "h-cup + Rbp", "DRSC id": "DRSC14990", "E2F firefly, rep 1": 1.09e5, "Renilla normaliser, rep 1": 6942}
{"Target gene": "GMF", "DRSC id": "DRSC01928", "E2F firefly, rep 1": 76210, "Renilla normaliser, rep 1": 2812}
{"Target gene": "rg", "DRSC id": "DRSC17377", "E2F firefly, rep 1": 71555, "Renilla normaliser, rep 1": 2258}
{"Target gene": "rg", "DRSC id": "DRSC17726", "E2F firefly, rep 1": 7432, "Renilla normaliser, rep 1": 796}
{"Target gene": "rg", "DRSC id": "DRSC18049", "E2F firefly, rep 1": 1.03e5, "Renilla normaliser, rep 1": 5332}
{"Target gene": "TwdlQ", "DRSC id": "DRSC14745", "E2F firefly, rep 1": 1.04e5, "Renilla normaliser, rep 1": 4998}
{"Target gene": "CG34284", "DRSC id": "DRSC14773", "E2F firefly, rep 1": 1.32e5, "Renilla normaliser, rep 1": 10126}
{"Target gene": "Fer3HCH", "DRSC id": "DRSC19892", "E2F firefly, rep 1": 85534, "Renilla normaliser, rep 1": 4409}
{"Target gene": "CG14367", "DRSC id": "DRSC14829", "E2F firefly, rep 1": 1.12e5, "Renilla normaliser, rep 1": 6584}
{"Target gene": "CG14013", "DRSC id": "DRSC02344", "E2F firefly, rep 1": 1.44e5, "Renilla normaliser, rep 1": 5412}
{"Target gene": "Ids", "DRSC id": "DRSC08222", "E2F firefly, rep 1": 1.02e5, "Renilla normaliser, rep 1": 4575}
{"Target gene": "Rpn5", "DRSC id": "DRSC12367", "E2F firefly, rep 1": 58364, "Renilla normaliser, rep 1": 3857}
{"Target gene": "CG11986", "DRSC id": "DRSC14461", "E2F firefly, rep 1": 59473, "Renilla normaliser, rep 1": 3370}
{"Target gene": "CG9121", "DRSC id": "DRSC03142", "E2F firefly, rep 1": 1.36e5, "Renilla normaliser, rep 1": 4875}
{"Target gene": "Cdc6", "DRSC id": "DRSC10563", "E2F firefly, rep 1": "1.03e5 (active)", "Renilla normaliser, rep 1": 156}
{"Target gene": "CG5404", "DRSC id": "DRSC15793", "E2F firefly, rep 1": 82281, "Renilla normaliser, rep 1": 3423}
{"Target gene": "CG17196", "DRSC id": "DRSC15189", "E2F firefly, rep 1": 1.06e5, "Renilla normaliser, rep 1": 5903}
{"Target gene": "sw", "DRSC id": "DRSC20388", "E2F firefly, rep 1": 82111, "Renilla normaliser, rep 1": 2798}
{"Target gene": "beg", "DRSC id": "DRSC10923", "E2F firefly, rep 1": 67224, "Renilla normaliser, rep 1": 3182}
{"Target gene": "CG13482", "DRSC id": "DRSC10024", "E2F firefly, rep 1": 77954, "Renilla normaliser, rep 1": 3903}

3 entries from above, sorted by “Renilla normaliser, rep 1”, high to low.
{"Target gene": "h-cup + Rbp", "DRSC id": "DRSC14990", "E2F firefly, rep 1": 1.09e5, "Renilla normaliser, rep 1": 6942}
{"Target gene": "CG7329", "DRSC id": "DRSC03046", "E2F firefly, rep 1": 1.46e5, "Renilla normaliser, rep 1": 4092}
{"Target gene": "GMF", "DRSC id": "DRSC01928", "E2F firefly, rep 1": 76210, "Renilla normaliser, rep 1": 2812}
